The list shows a part of the results.
Test system: T1, CTL2-GFP (C. trachomatis L2/434/Bu, GFP-expressing)
T1 construct: L2/434/Bu, GFP-expressing
Parameters: species or system HeLa; Intracellular C. trachomatis growth in HeLa cells, bulk GFP fluorescence relative to DMSO
Conditions: bulk GFP, single well; 28.5 h, 10 µM; inhibitor

Row | Compound | % of control remaining
1 | CCc1ccc(CNC(=O)Cn2nnc(-c3ccc(C(C)N4CCC(C)CC4)cc3)n2)cc1 (stereo not shown) [CBK164199T] | 93.07%
2 | O=C(Nc1cc(-c2nc3ncccc3o2)ccc1Cl)c1ccco1 [CBK269730] | 109.832%
3 | COc1ccc(Cl)cc1NC(=O)C1CN(S(=O)(=O)c2ccccc2)CCN1S(=O)(=O)c1ccccc1 (stereo not shown) [CBK264000] | 96.6537%
4 | COc1ccc(Cl)cc1N1CCN(Cc2ccc(OC(F)(F)F)cc2)CC1 [CBK126405] | 105.632%
5 | CCOc1cc(C(=O)O)ccc1OCCOc1cccc(C)c1 [CBK299781] | 144.637%
6 | Cn1ncc2c1CCCC2NC(=O)N(CCO)Cc1ccccc1 (stereo not shown) [CBK306293] | 165.699%
7 | Cc1cc(CC(=O)Nc2ccc3[nH]ccc3c2)on1 [CBK159690] | 109.85%
8 | c1ccc(COc2ccc(-c3cc(Nc4ccc5[nH]ccc5c4)ncn3)cc2)cc1 [CBK090857] | 106.29%
9 | O=C(c1ccc(-n2ccnc2)c(-n2cccc2)c1)N1CCCCCC1 [CBK284813] | 151.483%
10 | Cc1ccc(S(=O)(=O)NCCSc2ccc(Cl)cc2)cc1[N+](=O)[O-] [CBK264126] | 78.8677%
11 | c1ccc(Cn2c(CN3CCCCC3)nc3ccccc32)cc1 [CBK269237] | 129.614%
12 | Cc1c(S(=O)(=O)Nc2cc(C(F)(F)F)ccc2N2CCOCC2)cnn1-c1ccccc1 [CBK062551] | 99.5713%
13 | O=C(CC1(C(F)(F)F)NCCN1)c1ccco1 [CBK022373] | 166.314%
14 | CN(Cc1ccccc1N1CCOCC1)C(=O)c1ccc2ncsc2c1 [CBK296692] | 131.086%
15 | CN(C)c1ccc(-c2nccnc2NS(=O)(=O)c2ccc3ccccc3c2)cc1 [CBK050794] | 99.6961%
16 | Cn1cc(-c2nccnc2OCCN2CCCC2=O)cn1 [CBK107068] | 112.769%
17 | Cc1ccc(N2C(=O)c3ccc(C(=O)c4ccc(C(=O)O)cc4)cc3C2=O)cc1 [CBK287164] | 100.639%
18 | CCN(Cc1ccncc1)C(=O)NCCOc1ccccc1 [CBK155148] | 178.545%
19 | CCCNC(=O)c1nn2c(c1Cl)NC(c1cccs1)CC2C(F)(F)F (stereo not shown) [CBK307177] | 95.6259%
20 | C=CCOc1c(CNc2cccc(C(=O)O)c2)cccc1OC [CBK074432] | 88.9445%
21 | CNC(=O)C1(Cc2ccc(-c3ccccc3)cc2)CCN(C(=O)CCc2ccccc2)CC1 [CBK285765] | 140.357%
22 | O=C(Nc1nnc(-c2ccco2)o1)c1cccc(C(F)(F)F)c1 [CBK287422] | 112.834%
23 | Cc1ccc(NC(=O)c2cnc3ccccc3n2)c(C)n1 [CBK200218] | 95.9451%
24 | CCc1nn(CC(=O)NC2CC2)c(=O)c2cc3sccc3n12 [CBK284029] | 102.961%
25 | COc1ccc(NC(=O)c2cn(C)nc2CC2CCN(CCc3ccccc3)CC2)cc1 [CBK285559] | 109.287%
26 | O=C1CCC[C@]2(CN(C(=O)C3CC3)C[C@H]2c2ccc(F)c(F)c2)N1 [CBK283364] | 81.9749%
27 | CC(C)N1CCN(Cc2c(C(F)(F)F)[nH]c3ncccc23)CC1 [CBK285354] | 124.087%

Copied from the list:
Entry of c1ccc(Cn2c(CN3CCCCC3)nc3ccccc32)cc1 [CBK269237] under % of control remaining: 129.614%
Entry of CCc1nn(CC(=O)NC2CC2)c(=O)c2cc3sccc3n12 [CBK284029] under % of control remaining: 102.961%
Entry of CCc1ccc(CNC(=O)Cn2nnc(-c3ccc(C(C)N4CCC(C)CC4)cc3)n2)cc1 (stereo not shown) [CBK164199T] under % of control remaining: 93.07%
Entry of O=C1CCC[C@]2(CN(C(=O)C3CC3)C[C@H]2c2ccc(F)c(F)c2)N1 [CBK283364] under % of control remaining: 81.9749%
Entry of COc1ccc(Cl)cc1NC(=O)C1CN(S(=O)(=O)c2ccccc2)CCN1S(=O)(=O)c1ccccc1 (stereo not shown) [CBK264000] under % of control remaining: 96.6537%
Entry of COc1ccc(NC(=O)c2cn(C)nc2CC2CCN(CCc3ccccc3)CC2)cc1 [CBK285559] under % of control remaining: 109.287%

Further structures:

Row | Compound | % of control remaining
28 | COCCN1C(=O)/C(=C2/C(=O)N(CC(=O)Nc3ccccc3)c3ccccc32)SC1=S [CBK264489] | 100%
29 | CCn1cnnc1C1CCN(C(=O)c2ccc(C)c(Cl)c2)CC1 [CBK303997] | 143.523%
30 | O=C1CC(c2ccccc2)CC(=O)C1=CNCCN1CCOCC1 (stereo not shown) [CBK262522] | 105.475%
31 | CCN(CC)CC(=O)Nc1ccccc1OC [CBK266213C] | 114.683%
32 | COc1ccc(S(=O)(=O)N2CCC(C(=O)O)CC2)cc1Cl [CBK267162] | 141.346%
33 | O=C(c1cccc2[nH]ccc12)N1CCN(CCc2ccccc2)CC1 [CBK200203] | 102.763%
34 | CC(OC(=O)C1CCCCC1)c1nc2ccccc2[nH]1 (stereo not shown) [CBK111483] | 111.361%
35 | CCN(CC)CCn1c2ccccc2c2nc(C)sc21 [CBK266628C] | 172.457%
36 | COc1ccc(S(=O)(=O)N2CCN(C(=S)Nc3ccc(S(N)(=O)=O)cc3)CC2)cc1 [CBK266898] | 156.265%
37 | CC(C)(C)C(C#N)C(Oc1ccc(Cl)cc1)n1cncn1 (stereo not shown) [CBK023570] | 110.436%
38 | CN(C(=O)Cn1c(=O)n(C)c2ncccc21)C1CCCCC1 [CBK283791] | 168.123%
39 | Cc1noc(C)c1NC(=O)c1cccn1C [CBK200304] | 120.09%
40 | CC1CCCCN1CC(=O)N(C)C(C)COc1ccc(Cl)cc1 (stereo not shown) [CBK023201] | 97.1945%
41 | OC(CN1CCN(c2cccc(Cl)c2)CC1)Cn1c2ccccc2c2ccccc21 (stereo not shown) [CBK264333] | 109.343%
42 | O=C(NC[C@H]1CC[C@H](c2nnc(-c3ccsc3)o2)CC1)C1CCC1 [CBK283363] | 126.088%
43 | CN(C)CCCNC(=O)C1CCN(c2cncc(-c3ccc(O)cc3)n2)CC1 [CBK126929T] | 100%
44 | Cc1cccn2cc(CC(=O)OCC(=O)NC(C)(C)C)nc12 [CBK304966] | 107.936%
45 | O=C(CN1CCOCC1)NC1(c2ccccc2)CCCCC1 [CBK059545C] | 117.219%
46 | CCc1cc(NC[C@@H](O)CO)nc(-c2ccc(F)c(Cl)c2)n1 [CBK132880] | 40.7665%
47 | Cc1cnn(CCCNC(=S)Nc2ccc(S(N)(=O)=O)cc2)c1 [CBK266957] | 154.114%
48 | CC(=O)N(c1ccc2oc3c(c2c1)CCCC3)S(=O)(=O)c1ccc(C(=O)O)cc1 [CBK299808] | 120.932%
49 | CN1CCN(CCOC(=O)N2CCN(c3cccc(C(F)(F)F)c3)CC2)CC1 [CBK115940C] | 114.547%
50 | Cn1c(=O)[nH]c(=O)c2c1nc(N1CCOCC1)n2CC(O)COc1ccc(I)cc1 (stereo not shown) [CBK262438] | 110.907%
51 | NC(=O)CSc1nnc(SCc2cccc3ccccc23)s1 [CBK266150] | 155.382%
52 | CCn1c(=O)n(CC(=O)Nc2ccccc2F)c2cccnc21 [CBK283897] | 124.63%
53 | CN(C)C(=O)c1ccc(-c2cnc(OCC3CCN(C(=O)OC(C)(C)C)CC3)cn2)cc1F [CBK175076] | 119.881%
54 | CC(=O)Nc1cccc(NC(=O)c2cc(-c3ccccn3)nc3ccc(Cl)cc23)c1 [CBK267747] | 116.349%

Row | Compound | % of control remaining
55 | CC1Cc2cc(-c3cn4ccccc4n3)ccc2N1S(C)(=O)=O (stereo not shown) [CBK285194] | 101.694%
56 | CCCc1occc1C(=O)N1CCOCC1C(=O)O (stereo not shown) [CBK304151] | 114.505%
57 | Cc1nnc(Sc2nc3ccccc3nc2C(F)(F)F)s1 [CBK093774] | 134.992%
58 | Cn1ccnc1C(NC(=O)N1CCCC1)c1ccc(F)c(F)c1 (stereo not shown) [CBK283782] | 100.728%
59 | COc1cc(C(=O)O)cc2c1NC(c1ccc(C(=O)O)cc1)C1CC=CC21 (stereo not shown) [CBK287018] | 138.032%
60 | Cc1ccc(-c2nnc(-c3cccc(NC(=O)CSCc4ccc(Cl)cc4)c3)o2)cc1 [CBK266789] | 142.866%
61 | CC(=O)c1ccc(-c2ccc(C(=O)NCC3COc4ccccc4O3)c(NCc3cccnc3)n2)s1 (stereo not shown) [CBK076608] | 160.533%
62 | COC(=O)CCc1ccc(S(=O)(=O)N2CCCN(Cc3c[nH]c4ccc(Cl)cc34)CC2)cc1 [CBK063000] | 100.704%
63 | Clc1cc(N2CCCC2)ncn1 [CBK083597] | 118.323%
64 | O=C(Cn1ccc(=O)[nH]c1=O)NCc1cccnc1OCC(F)(F)F [CBK304565] | 133.887%
65 | COc1ccc(C(=O)N2CC[C@H]3NC(=O)N(c4ccc(F)cc4)C(=O)[C@H]32)cc1 [CBK289325] | 151.617%
66 | O=C(Nc1cc2cccnc2c(Br)n1)Nc1ccc(F)cc1C(F)(F)F [CBK063287] | 139.702%
67 | CSc1ccc(-n2ncc(-c3ccc(Cl)cc3)n2)cc1 [CBK112782] | 102.782%
68 | CNC(=O)c1c(NC(=O)c2nc(SCc3ccccc3)ncc2Cl)sc2c1CCCC2 [CBK269087] | 148.503%
69 | Cc1nn(C)c(C)c1-c1ccnc(NCCC2(O)CCN(C)CC2)n1 [CBK307659] | 95.4527%
70 | c1cnc(-c2ccoc2)c(NCCCN2CCOCC2)n1 [CBK036631] | 100%
71 | Cc1ccc(OCC(=O)Nc2ccc3c(c2)C(=O)Nc2ccccc2O3)cc1 [CBK287660] | 113.592%
72 | CCCCn1c(=O)c(C(=O)Nc2ccccc2S(N)(=O)=O)c(O)c2ccccc21 [CBK262260] | 116.074%
73 | O=[N+]([O-])c1ccc(S(=O)(=O)Nc2nnc(C3CCCCC3)s2)cc1 [CBK200049] | 138.173%
74 | CC(=O)N1CCc2c(c3cccc(Br)c3n2Cc2ccccc2)C1 [CBK024402] | 118.637%
75 | CN1CCN(C2CC(=O)N(c3ccc(Oc4ccccc4)cc3)C2=O)CC1 (stereo not shown) [CBK265434] | 129.849%
76 | COc1cccc(C2CC(=O)Nc3n[nH]cc32)c1OC (stereo not shown) [CBK287889] | 118.739%
77 | CN(C)S(=O)(=O)N1CCN(c2ccc([N+](=O)[O-])c(NCCc3ccccc3)c2)CC1 [CBK266498] | 118.2%
78 | Cc1cnc(NC(=O)C(C)Oc2ccccc2)s1 (stereo not shown) [CBK288250] | 108.746%
79 | Clc1cc(Nc2ccc3[nH]ccc3c2)n2nccc2n1 [CBK037009] | 123.661%
